Measured values from PubChem BioAssay AID504834 (National Center for Advancing Translational Sciences (NCATS), 2011).
Hit rate of the full screen: of about 320,000 compounds, about 22,000 (6.9%) were called active. This list was built around the results that the source calls inconclusive (neither active nor inactive); the mix of calls is not that of the screen. Calls follow the shape of the dose curve; as a rule, active = well fitted inhibition curve with a large enough effect; inconclusive = small, poorly fitted or top-dose-only effect, or another doubt; inactive = no such curve, though single readings can be large or run the other way. Potencies of inconclusive entries are doubtful fits and often do not repeat.

Experiment: Primary qHTS for delayed death inhibitors of the malarial parasite plastid, 96 hour incubation
Settings: P. falciparum luciferase reporter growth; series mostly up to 28.7 µM; activity change, negative = inhibition: at the top concentration
In short: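 Delayed-death screen, second-generation endpoint: infected erythrocytes, 2% hematocrit, 0.05% parasitemia final; 96 hours at 37 C, 5% CO2; luciferase detection reagent; luminescence decrease equals reduced growth.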
% is scaled to controls: 0 for no effect and ±100 for the full control effect; potency is read from the fitted curve at half-maximal effect.

| SMILES | Potency | activity change, negative = inhibition |
| --- | --- | --- |
| Nc1nnnn1/N=C/c1ccccc1OCc1ccccc1 | inconclusive: 11.7 µM [inhibitor, single point] |  |
| COc1ccccc1S(=O)(=O)Nc1ccc(S(=O)(=O)Nc2nccs2)cc1 | inconclusive: 14.7 µM [inhibitor, partial curve, poor fit] |  |
| Clc1ccc2nc(-c3ccccc3)nc(C(Cl)Cl)c2c1 | inconclusive: 6.57 µM [inhibitor, partial curve, poor fit] |  |
| CC(N)C(=O)NCC(=O)NC1CSSCC(C(=O)O)NC(=O)C(CO)NC(=O)C(C(C)O)NC(=O)C(Cc2ccccc2)NC(=O)C(C(C)O)NC(=O)C(CCCCN)NC(=O)C(Cc2c[nH]c3ccccc23)NC(=O)C(Cc2ccccc2)NC(=O)C(Cc2ccccc2)NC(=O)C(CC(N)=O)NC(=O)C(CCCCN)NC1=O (stereo not drawn) | inconclusive: 21.3 µM [inhibitor, partial curve, poor fit] |  |
| Cc1cc(C)c(C#N)c(Nc2cccc(C)c2C)n1 | inconclusive: 7.38 µM [inhibitor, partial curve, poor fit] |  |
| CCOc1cc(/C=N/NC(=O)Nc2ccccc2)ccc1O |  | inactive: -29.1% |
| COc1ccc(C(=O)NCC2CCCCC2)cc1S(=O)(=O)N1CCCC1 |  | inactive: -107% |
| CN(C)c1cccc2c(S(=O)(=O)Nc3ccccn3)cccc12 | inconclusive: 18.5 µM [inhibitor, single point] |  |
| COc1cc(CC(=O)N/N=C/c2ccccc2)c([N+](=O)[O-])cc1OC | inconclusive: 1.85 µM [inhibitor, full curve, poor fit] |  |
| O=C1/C(=C/c2cccnc2)Sc2ccccc21 | active: 7.38 µM |  |
| CN1C2CCC1CC(NC(=O)c1ccc(Cl)cc1)C2 (stereo not drawn) | inconclusive: 3.29 µM [inhibitor, partial curve, poor fit] |  |
| CCCCCCCN=C(C)c1ccccc1O |  | inactive: 22.3% |
| OCC(O)CN1CCCC1 (stereo not drawn) |  | inactive: 54.2% |
| Cc1cccc(NS(=O)(=O)c2ccc(C(=O)N3CCN(c4ccccc4O)CC3)cc2)c1C | inconclusive: 18.5 µM [inhibitor, single point] |  |
| Cc1ccsc1C(=O)OCC(=O)NCCNC(=O)COC(=O)c1sccc1C |  | inactive: 48.5% |
| FC(F)(F)c1ccccc1/C=N/Nc1ccccn1 |  | inactive: 28.9% |
| CCOC(=O)c1c(CC(C)C)csc1NC(=O)COC(=O)C1=NNC(=O)CC1 | inconclusive: 14.7 µM [inhibitor, partial curve, poor fit] |  |
| O=C(O)/C=C1\NC(=O)c2ccccc21 | inconclusive: 18.5 µM [inhibitor, single point] |  |
| CC(=O)Nc1cccc(NC(=O)CSc2nnc(Cc3cccn3C)n2-c2ccc(C)cc2)c1 | active: 4.15 µM |  |
| CN1/C(=C\C=C2/C(=O)Oc3ccccc3C2=O)C(C)(C)c2ccccc21 | inconclusive: 10.4 µM [inhibitor, single point] |  |
| CN1CCN(CC(=O)N2c3ccccc3C(C)(c3ccccc3)CC2(C)C)CC1 (stereo not drawn) | active: 10.4 µM |  |
| Cc1ccc(S(=O)(=O)N2CCCC2)cc1C(=O)Nc1ccc(-n2cnnn2)cc1 | inconclusive: 5.86 µM [inhibitor, partial curve] |  |

| SMILES | Potency | activity change, negative = inhibition |
| --- | --- | --- |
| CCN(CC)C(=O)/C(=C/c1cccc([N+](=O)[O-])c1)NC(=O)c1ccco1 | inconclusive: 11.7 µM [inhibitor, single point] |  |
| COc1cc(NC(=O)CSc2nnc3n2C(C)(C)Cc2ccccc2-3)cc(OC)c1 | active: 4.15 µM |  |
| C/C(=N\NC(=O)c1cccc(S(=O)(=O)N2CCCC2)c1)c1ccccc1F | inconclusive: 18.5 µM [inhibitor, single point] |  |
| Cc1cc(C)c(NC(=O)C2CC(=O)N(C(C)C)C2)c(C)c1 (stereo not drawn) | inconclusive: 18.5 µM [inhibitor, single point] |  |
| Clc1cccc(/C=N/Nc2nnc(Cl)c3ccccc23)c1 | inconclusive: 4.15 µM [inhibitor, single point] |  |
| O=C(N/N=C/c1ccccc1O)NC12CC3CC(CC(C3)C1)C2 | active: 2.62 µM |  |
| COC(=O)/C=C/C(=O)N1CCN(c2ccccc2C)CC1 | active: 7.38 µM |  |
| Cc1nc2nc(C)c(NS(=O)(=O)c3ccc(C4CCCCC4)cc3)c(=O)n2[nH]1 | inconclusive: 18.5 µM [inhibitor, single point] |  |
| CC1CCC2C(=O)N(c3ccc(S(=O)(=O)c4ccccc4)cc3)C(=O)C2C1 (stereo not drawn) |  | inactive: 22.4% |
| O=C(NC1CCCC1)c1c(O)nc2sccn2c1=O | inconclusive: 9.28 µM [inhibitor, partial curve, poor fit] |  |
| COc1ccc(NC(=O)c2cc3ccccc3cc2OC)cc1 |  | inactive: 75.9% |
| CCOC(=O)c1sc(NC(=O)CCN2CCN(CC)CC2)c(C(=O)OCC)c1C | inconclusive: 18.5 µM [inhibitor, single point] |  |
| CC(C)C(=O)N1CCN(c2ccc(NC(=O)c3cccs3)cc2)CC1 |  | inactive: 104% |
| O=C(NCc1cccnc1)C(=O)Nc1ccc([N+](=O)[O-])cc1 | inconclusive: 0.0029 µM [inhibitor, full curve, poor fit] |  |
| COc1ccc(OC)c(NC(=O)CSc2nnc(-c3cnccn3)n2C)c1 | inconclusive: 18.5 µM [inhibitor, single point] |  |
| O=C(CN1CCC(c2nc3ccccc3s2)CC1)NCc1cccs1 | inconclusive: 3.29 µM [inhibitor, partial curve, poor fit] |  |
| Cc1ccccc1N1CCN(C(=O)c2ccccc2NC(=O)/C=C\C(=O)O)CC1 | inconclusive: 14.7 µM [inhibitor, partial curve, poor fit] |  |
| O=C(CNC(=O)c1ccccc1F)OCc1nc2ccc(Cl)cc2n1CCO | inconclusive: 18.5 µM [inhibitor, single point] |  |
| O=C(CN1CCN(S(=O)(=O)c2ccc(Cl)cc2)CC1)c1ccc(O)c(O)c1 | inconclusive: 18.5 µM [inhibitor, single point] |  |
| COc1cccc(CNC(=O)C(=O)NCCC2CCCCN2S(=O)(=O)c2ccccc2)c1 (stereo not drawn) | inconclusive: 10.4 µM [inhibitor, single point] |  |
| COc1ccc([N+](=O)[O-])cc1NC(=O)CSCc1ccccc1 | inconclusive: 18.5 µM [inhibitor, single point] |  |

Not a retest: 3 of the compounds above.

| SMILES | Potency | activity change, negative = inhibition |
| --- | --- | --- |
| Cc1ccccc1N1CCN(C(=O)c2ccccc2NC(=O)/C=C\C(=O)O)CC1 | inconclusive: 14.7 µM [inhibitor, partial curve, poor fit] |  |
| O=C(CNC(=O)c1ccccc1F)OCc1nc2ccc(Cl)cc2n1CCO | inconclusive: 18.5 µM [inhibitor, single point] |  |
| O=C(CN1CCN(S(=O)(=O)c2ccc(Cl)cc2)CC1)c1ccc(O)c(O)c1 | inconclusive: 18.5 µM [inhibitor, single point] |  |
